PubChem BioAssay AID485314 (National Center for Advancing Translational Sciences (NCATS), 2010)
The campaign covered roughly 340,000 compounds. About 4,500 (1.3%) were called active. The inconclusive results got no clear call from the source; some entries with a clear call stand among them for comparison. Calls follow the shape of the dose curve; as a rule, active = well fitted inhibition curve with a large enough effect; inconclusive = small, poorly fitted or top-dose-only effect, or another doubt; inactive = no such curve, though single readings can be large or run the other way. A potency beside an inconclusive call is a rough fit, not a confirmed value. A structure can be active in one record and inactive in another.

molecular target: DNA polymerase beta (Homo sapiens) (UniProt P06746); assay: qHTS Assay for Inhibitors of DNA Polymerase Beta; settings: Pol beta primer extension/strand displacement, fluorescence kinetic; series mostly up to 114 µM
Procedure, shortened: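 Curves were derived by four-parameter Hill fits of normalized qHTS data. The kinetic fluorescent primer-extension read was taken at 0 and 10 min after 50 nM substrate, following a 15 min room-temperature preincubation of 10 nM enzyme with compounds.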
Potency is read from the fitted curve at half-maximal effect.

SMILES	Potency
CCCC(=O)OCC(=O)Nc1ccc(N=Nc2ccccc2)cc1	inconclusive: 3.55 µM [inhibitor, single point]
COc1ccccc1N1CCN(C(=O)c2cc(N3C(=O)C4C5CCC(C5)C4C3=O)ccc2Cl)CC1 (stereo not drawn)	inconclusive: 79.4 µM [inhibitor, single point]
COc1cc(CNc2ccc3[nH]c(=O)[nH]c3c2)cc(Cl)c1OCC(=O)NC(C)(C)C	inconclusive: 79.4 µM [inhibitor, partial curve]
CCOC(=O)CSc1nc(C(C)C)nc2sc(C)c(C)c12	inconclusive: 10 µM [inhibitor, partial curve, poor fit]
S=C(Nc1ccc2nccnc2c1)N1CCOCC1	inactive
Cc1ccc(NC(=O)CSC2=C(C#N)C(c3ccco3)C3=C(CCCC3=O)N2)cc1 (stereo not drawn)	inactive
Cc1oc(-c2ccccc2Cl)nc1CSCC(=O)N1CCCC1	active: 79.4 µM
COc1ccc(Cl)cc1NC(=O)Cn1c(=O)oc2cc(S(=O)(=O)N3CCCCCC3)ccc21	inconclusive: 44.7 µM [inhibitor, partial curve, poor fit]
CCCc1nc(NCc2ccncc2)c2nnn(Cc3ccccc3F)c2n1	inconclusive: 11.2 µM [inhibitor, partial curve]
Cc1cccc(NC(=O)CSc2cn[nH]n2)c1	inconclusive: 4.47 µM [inhibitor, full curve]
O=C(N/N=C/c1cccc(Br)c1)c1ccc(N2CCCC2=O)cc1	inconclusive: 35.5 µM [inhibitor, partial curve]
CCOc1ccccc1CNC(=O)C1CCN(c2nnc(C)c3c(C)n(-c4ccc(C)cc4)nc23)CC1	active: 7.08 µM
COC(=O)CCC/C=C1/SCC(NC(=O)c2ccccc2)C1O (stereo not drawn)	inactive
CCC1CCCCN1C(=O)CSc1n[nH]c(-c2ccccc2)n1 (stereo not drawn)	inactive
O=c1[nH]c2ccccc2n2c(-c3ccccc3)nnc12	active: 39.8 µM
CNC(=O)c1ccc(-c2nc(CN3CCc4ccccc43)c(C)o2)cc1	inconclusive: 89.1 µM [inhibitor, single point]
O=C(Nc1nc2ccccc2s1)Nc1ccc(F)cc1F	inconclusive: 50.1 µM [inhibitor, partial curve]
COc1ccc(C(=O)N/C(=C/c2cccnc2)C(=O)N2CCN(C)CC2)cc1OC	inactive
O=C(COC(=O)c1ccccc1C(=O)c1ccc(Cl)c([N+](=O)[O-])c1)NC1CC1	inactive
OCCNc1nc(N2CCOCC2)nc(N2CCOCC2)n1	inactive
COC(=O)C1=C(C)N(CCCC(=O)O)C(=O)NC1c1cccs1 (stereo not drawn)	inactive
O=C1COc2ccc(C(=O)COC(=O)c3ccco3)cc2N1	inactive
O=C1c2ccccc2NC(c2ccc(O)c(O)c2)N1c1ccccc1Cl (stereo not drawn)	inactive
COc1ccc(CC(=O)Nc2c3c(nn2C(C)(C)C)CS(=O)(=O)C3)cc1	inactive

Fetched by compound from above:
SMILES	Potency
CCCc1nc(NCc2ccncc2)c2nnn(Cc3ccccc3F)c2n1	inconclusive: 11.2 µM [inhibitor, partial curve]
O=C(Nc1nc2ccccc2s1)Nc1ccc(F)cc1F	inconclusive: 50.1 µM [inhibitor, partial curve]
O=C(N/N=C/c1cccc(Br)c1)c1ccc(N2CCCC2=O)cc1	inconclusive: 35.5 µM [inhibitor, partial curve]

Following part:

SMILES	Potency
CC(=O)c1ccc2c(c1)C1C=CCC1C(C(=O)O)N2 (stereo not drawn)	active: 31.6 µM
O=C1C(=Cc2ccco2)C(=O)c2ccccc21	inconclusive: 15.8 µM [inhibitor, full curve]
COC(=O)c1ccccc1NC(=O)Nc1ncccc1C	inconclusive: 100 µM [inhibitor, single point]
O=C(CSc1nnc(-c2ccc(Cl)cc2)n1Cc1ccco1)c1cccs1	inconclusive: 22.4 µM [inhibitor, partial curve]
COc1cc2c(cc1OC)C(COc1ccc(F)cc1)N(C(=O)C(C)C)CC2 (stereo not drawn)	inconclusive: 89.1 µM [inhibitor, single point]
Cc1cc(C(=O)CSc2nnc(-c3ccncc3)n2-c2ccccc2)c(C)n1C	active: 44.7 µM
CN(C)Cc1cc(O)c(CN(C)C)cc1O	active: 10 µM
Cc1nc(SCC(=O)Nc2cccc(Cl)c2)n[nH]1	inconclusive: 89.1 µM [inhibitor, single point]
CC(=O)Oc1ccc2occ(/C=N/c3cc(=O)[nH]c(=S)[nH]3)c(=O)c2c1	inactive
CC1(C)C=Cc2cc3ccc(=O)oc3cc2O1	inconclusive: 79.4 µM [inhibitor, single point]
COc1cc2c(C(=O)O)c(C)n(C)c2c2ccccc12	inactive
COc1ccc(NS(=O)(=O)c2ccc(C(=O)OC(C)C(=O)N3CCOCC3)cc2)cc1 (stereo not drawn)	inactive
COC(=O)Nc1c(C(=O)OC)cc(OC)c(OC)c1OC	inconclusive: 22.4 µM [inhibitor, partial curve]
O=C1C=C(Nc2ccc(Cl)cc2)CC(c2ccccc2)C1 (stereo not drawn)	inconclusive: 89.1 µM [inhibitor, single point]
O=C(Nc1ccc(Oc2ccc(C(F)(F)F)cn2)c(Cl)c1)C1CC1	inconclusive: 0.316 µM [inhibitor, full curve, poor fit]
COc1ccc(C(=O)Nc2ccc3nc(N4CCN(C)CC4)cc(C)c3c2)c(OC)c1	inconclusive: 25.1 µM [inhibitor, single point]
CSCC[C@H](NC(=O)Cc1c(C)c2c(cc(C)c3c(C)coc32)oc1=O)C(=O)O	inactive
N#CC(C(=O)CCN1C(=O)C2CC=CCC2C1=O)c1nc2ccccc2[nH]1 (stereo not drawn)	inconclusive: 39.8 µM [inhibitor, partial curve]
Cc1ccccc1/C=c1\s/c(=C\C(=O)C(C)(C)C)[nH]c1=O	inconclusive: 89.1 µM [inhibitor, single point]
CCC(C)Cn1c(COc2ccc(OC)cc2)nc2ccccc21 (stereo not drawn)	inconclusive: 5.01 µM [inhibitor, full curve, poor fit]
Cc1onc(-c2ccccc2Cl)c1C(=O)Nc1cccc(-c2cn3cccnc3n2)c1	inconclusive: 89.1 µM [inhibitor, single point]
CCOc1ccc(NC(=O)CCn2c(-c3ccc(F)cc3)cc(C(C)=O)c2C)cc1	inactive
CCOc1ccc(S(=O)(=O)N2CCN(C(=O)c3sccc3C)CC2)cc1	inactive
Oc1c(Br)cc(Br)cc1/C=N/NC(=S)N[C@H]1CC2C=CC1C2 (stereo partly drawn)	inconclusive: 0.282 µM [inhibitor, full curve]
